## Results of single-concentration screens

Measurements from “University of Dundee, Small-Polar-MMV Screening Library” (2021), ChEMBL document CHEMBL3988442.

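Whole-cell growth test on Mycobacterium tuberculosis, read after 3 days in glucose-containing 7H9 medium; the read-out is not stated. Concentration: 50 µM. Higher reads as more growth inhibition (inferred: compounds with an IC50 in retests scored well above the rest). About 69,000 compounds were tested under these conditions; 1.1% (about 760) showed 50% or more at least once.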

The filed quantity is “Percent Effect” (%). The controls that fix the scale are not given in the record; negative values are as filed. This is an unselected part of the compounds tested. Two or more numbers in one place are separate tests of the same structure; such repeats can differ widely.

- N#CCSCCCN1CCN(C(=O)C2CCCC2)CC1 : 20.59%
- CCCN(C)C(=O)c1cc(Br)cc(S(=O)(=O)N2CCOCC2)c1F : -20.13%
- O=C(NCCc1cccs1)N1CCCC1CCCO (stereo unspecified) : 22.48%
- O=C(c1ccsc1)N1CCC(c2nnc(C3CC3)o2)CC1 : -16.26%
- N#CC1(NC(=O)c2cc(Cl)c3c(c2)OCCCO3)CCC1 : 10.69%
- CS(=O)(=O)N1CCOCC2(CCN(c3cnccn3)CC2)C1 : -11.96%
- CC(NC(=O)c1cc(-c2cccc(Cl)c2)no1)C(=O)N(C)C (stereo unspecified) : 3.798%
- COCCN1CCC2(CCCN(Cc3ccoc3)C2)C1=O.O=C(O)C(F)(F)F (stereo unspecified) : -8.146%
- Cc1ncsc1CCN(C)C1CCN(c2ncnc3[nH]cnc23)CC1 : -17.93%
- CCOCc1nc2c(c(N(C)Cc3ccsc3)n1)CCNCC2 : 0.8529% & 15.5%
- Cc1cnc(CNc2c(F)cccc2-n2cccn2)o1 : -32.91% & -9.257%
- Cc1noc2ncnc(N(C)Cc3ccco3)c12 : 20.77%
- CC(C)n1cnnc1CNC(=O)c1cnn(Cc2ccccc2)c1 : 10.55%
- CCn1ccnc1CN1CCOC(Cn2cccn2)C1 (stereo unspecified) : 8.876%
- COc1ccc(/C=C/CN2CCN(c3nccnc3C)CC2)cc1 : 5.129% & 9.155%
- [H][C@@]12C[C@@H](c3nnc(C)[nH]3)O[C@]1([H])CN(S(=O)(=O)c1cccc(C)c1)C2 : 35.11%
- COC(=O)N1CCN(C(=O)c2ccc(C)c(N3CCNC3=O)c2)CC1 : -28.41%
- Cc1ccccc1-c1cc(CC2(C(=O)O)CCOCC2)on1 : 18.29%
- COc1cccc(CC(=O)N2CCN(c3cccc(C)c3)C(C)C2)c1 (stereo unspecified) : 14.86%
- [H][C@]12C[C@H](NC(=O)c3cc(C)no3)[C@@]1([H])CN(S(=O)(=O)c1ccc(C)cc1)C2 : 9.851%
- O=C(NC(C1CC1)C1CC1)c1cccc[n+]1[O-] : -43.28%
- O=C(NCCN1CCCCC1=O)C1CCC(=O)N(C2CCCC2)C1 (stereo unspecified) : 10.11%
- CC(O)CN1CCC(CN(C)CCC(=O)NC2CCCCC2)CC1 (stereo unspecified) : -8.396%
- O=C(Cc1ccc(-c2ccccc2)cc1)N1CCOCC(O)C1 (stereo unspecified) : -29.07%
- CC(C)c1nc(CN(C)C(=O)CCNC(=O)c2ccccc2F)no1 : -13.17% & -4.124%
- COCc1nc(C(=O)N2CCCC(n3ccnc3C)C2)cs1 (stereo unspecified) : -5.034%
- CCc1cc(CNC(=O)N2Cc3ccccc3N(C)CC2C)on1 (stereo unspecified) : -13.21% & 15.55%
- O=C(O)C(F)(F)F.O=C(c1cnccn1)N1CCC2(CC1)CCN(Cc1ccccn1)C2=O : -47.25%
- Cc1cc(C)n(CCNCc2cc(-c3ccc(Cl)cc3)c[nH]c2=O)n1 : -9.039%
- CC(=O)NCCc1cc2nc(-c3ccncc3)ccn2n1 : 9.693%
- OCC1CCCCN1Cc1cc(O)c2cccc(F)c2n1 (stereo unspecified) : -14.5% & -6.749%
- O=S(=O)(Cc1ccc(F)cc1)NCc1nnc2n1CCC2 : 25.35%
- CCc1ncc2c(n1)CN(c1nnc(C)c(C)c1C#N)CC2 : -35.77%
- c1ccc(-c2cnn3cc(CN4CCC5(CCO5)CC4)cnc23)cc1 : 6.569% & 22.12%
- CCC(CC)C(=O)NC1CCCc2nc(N3CCOCC3)ncc21 (stereo unspecified) : 20.87%
- CCOc1ncccc1C(=O)N1CCCC1Cn1nc(C)cc1C (stereo unspecified) : -15.85%
- CN(C)C(=O)c1cc(-c2ccncc2)[nH]n1 : 7.51%
- CC(Cn1ccnc1)NC(=O)N1CCN(Cc2ccncc2)CC1 (stereo unspecified) : 19.6%
- COc1c(CNCc2cccc(C(=O)N(C)C)c2)c(C)nn1C : -4.587%
- O=C(O)C(F)(F)F.O=C(O)C(F)(F)F.[H][C@@]12CCCO[C@]1([H])[C@H](N(C)C(C)C)CN(Cc1scnc1C)C2 : -6.841% & -20.64%
- Cc1ncsc1CCN(C)Cc1ccc(Br)o1 : -28.75% & 7.198%
- Cn1c(N2CCOCC2)nc2cc(C(=O)NCc3cccnc3)ccc21 : -11.71%
- Cc1noc(C)c1S(=O)(=O)N1CCC(Oc2ccccn2)CC1 : 15.71% & -3.708%
- COc1ccccc1OCC(=O)n1nc(C)c(C)c1C : -8.615%
- Cc1ccc(CN2CCOCS2(=O)=O)cc1F : 30.63%
- O=C(NCC1CC1)C1CN(c2ncccn2)Cc2ccnn2C1.O=C(O)C(F)(F)F.O=C(O)C(F)(F)F (stereo unspecified) : 1.988%
- Cc1ccccc1-n1cnnc1SCC(=O)NCC1CCCO1 (stereo unspecified) : -13.21%
- O=C(O)C1c2nc[nH]c2CCN1Cc1cc(-c2ccccc2)no1 (stereo unspecified) : -12.71%
- O=C(NCCOc1cccc(Cl)c1Cl)N1CCC2(CC1)OCCO2 : 3.313%
- O=S1(=O)NC(C2CCN(Cc3ccncc3)CC2)Nc2ccccc21 (stereo unspecified) : -9.757%
- CN(C)C(=O)N1CCN(C(=O)C(c2ccccc2F)N(C)C)CC1 (stereo unspecified) : -3.354% & -12.9%
- Cc1c[nH]nc1C1CN(Cc2cnn(-c3ccccc3C(=O)O)c2)C1 : 1.707%

Repeated from the top, 6 entries:

structure,percent effect
N#CCSCCCN1CCN(C(=O)C2CCCC2)CC1,20.59%
CCCN(C)C(=O)c1cc(Br)cc(S(=O)(=O)N2CCOCC2)c1F,-20.13%
O=C(NCCc1cccs1)N1CCCC1CCCO (stereo unspecified),22.48%
O=C(c1ccsc1)N1CCC(c2nnc(C3CC3)o2)CC1,-16.26%
N#CC1(NC(=O)c2cc(Cl)c3c(c2)OCCCO3)CCC1,10.69%
CS(=O)(=O)N1CCOCC2(CCN(c3cnccn3)CC2)C1,-11.96%